Laboratory results taken from PMC7819943, “Rice protein-binding microarrays: a tool to detect cis-acting elements near promoter regions in rice”.
The other results are listed elsewhere or left out.

target: T1, OsSMF1 (Oryza sativa, UniProt Q6ZLB0 1-436); assay: protein-binding microarray (RPBM); PBS, 2% BSA, 51.3 ng/ul salmon testes DNA, 50 uM zinc acetate, 200 nM TF, 25 C, 1 h; high values mean tight binding; conditions: protein: recombinant; tags: N-terminal polyhistidine and DsRed monomer fusion (pET32a); chain copies: 2; label: CyDye5-dUTP incorporated in the synthesized complementary strand; 3' TTTTT single-stranded linker to array surface; dsDNA, one strand shown
T1 sequence: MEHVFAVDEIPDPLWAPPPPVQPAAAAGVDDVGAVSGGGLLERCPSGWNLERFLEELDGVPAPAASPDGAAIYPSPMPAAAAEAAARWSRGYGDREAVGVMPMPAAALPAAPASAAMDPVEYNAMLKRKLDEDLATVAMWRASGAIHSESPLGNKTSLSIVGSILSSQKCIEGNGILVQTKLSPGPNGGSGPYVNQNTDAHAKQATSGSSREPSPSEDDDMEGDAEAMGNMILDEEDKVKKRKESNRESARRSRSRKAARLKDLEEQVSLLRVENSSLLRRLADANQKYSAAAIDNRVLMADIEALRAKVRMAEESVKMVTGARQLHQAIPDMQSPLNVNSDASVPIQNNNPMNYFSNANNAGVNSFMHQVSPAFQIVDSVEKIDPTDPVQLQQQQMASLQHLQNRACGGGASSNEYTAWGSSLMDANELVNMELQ
Summary of the method: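 Transcription factors were each fused at the N-terminus to a polyhistidine tag plus DsRed and expressed in E. coli BL21-CodonPlus before Ni–NTA purification. Binding to a double-stranded custom Agilent array was carried out with 200 nM protein at 25 °C for 1 h in PBS, 2% BSA, salmon testes DNA and 50 µM zinc acetate. The binding signal is per-feature fluorescence intensity, in arbitrary units, on an Axon 4000B scanner.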

Sequence | binding signal
TCCTCTCCCTCCTCCCCACTTCAAGATTTTCACCAACCTTCGGAGTCACCTAGTGCAG | 4060 fluorescence intensity (a.u.)
GCGTCAGAAGGTTGCAACGCCTATATTGCCACACCAGCCGCGGAGTCACCTAGTGCAG | 3610 fluorescence intensity (a.u.)
GCGTACGTACGCGTCAGCTCTCTCTCTCTCTCTCTCTCCTCGGAGTCACCTAGTGCAG | 15700 fluorescence intensity (a.u.)
CCAGGACATAATGCAAACTACGTGACTTTCTGAAGTATTACGGAGTCACCTAGTGCAG | 14400 fluorescence intensity (a.u.)
GCTGATGGAGTTGCTACCACCGCTTCTATCGCCACGTGTCCGGAGTCACCTAGTGCAG | 18100 fluorescence intensity (a.u.)
TCGGTTTCCATGGCAGCGTTGCACGGTTGTACCGTGGCGTCGGAGTCACCTAGTGCAG | 3490 fluorescence intensity (a.u.)
GTCAGTGACAGTGTGACACAGACGTTCTCTGCTTCCACCTCGGAGTCACCTAGTGCAG | 5580 fluorescence intensity (a.u.)
ATCCGACGCGGGCGCTCGGTGACGGTGAGGCCACTTAGCTCGGAGTCACCTAGTGCAG | 4360 fluorescence intensity (a.u.)
AGTTTGGTTGTAATCCTCCTAATCTTAATCGAATTGCTTCCGGAGTCACCTAGTGCAG | 17500 fluorescence intensity (a.u.)
CATATTATCCCTGCCAATAAATAAATAAATAAAATTGAGCCGGAGTCACCTAGTGCAG | 24700 fluorescence intensity (a.u.)
TAGTGGTGATGCTAATTGTGAGAAGGTGCCAGGTGGTTTGCGGAGTCACCTAGTGCAG | 3810 fluorescence intensity (a.u.)
CCACTGCACTGCACTGCCAATGACAGCTCTCGCGCGAGGCCGGAGTCACCTAGTGCAG | 3410 fluorescence intensity (a.u.)
CCGTTACACCACCCGCCTCACGCCGTCACGTCAACTTCCGCGGAGTCACCTAGTGCAG | 4490 fluorescence intensity (a.u.)
TATATGGGTACCACACTTGACTCAGCTACCACGTCAGCTCCGGAGTCACCTAGTGCAG | 29300 fluorescence intensity (a.u.)
AACGCGACCCCGTCGGCGACGGCGGACGGCGCGTGGTCGTCGGAGTCACCTAGTGCAG | 26400 fluorescence intensity (a.u.)
TGCAAACCTGGGTTTGTACACGTACTGACCACGGGTGCAGCGGAGTCACCTAGTGCAG | 7770 fluorescence intensity (a.u.)
GCGAATGCGTCCAAGGCGGAGGCGACAACGAGCAGCAAACCGGAGTCACCTAGTGCAG | 3200 fluorescence intensity (a.u.)
CCTCCTCCCCACCAGCCGGCCTGCCACGCCCAGCCCCTCCCGGAGTCACCTAGTGCAG | 3840 fluorescence intensity (a.u.)
TACAACACACAGTGACAATGCAGTGCAGAAGATAAAACGGCGGAGTCACCTAGTGCAG | 3560 fluorescence intensity (a.u.)
CCTTAGCTTGTCAGAAGACCCCGTGGGACGGCTCGCAGATCGGAGTCACCTAGTGCAG | 3390 fluorescence intensity (a.u.)
AACGATTGCATGTCTGTTCGCTAGGGACGCTACACGTACGCGGAGTCACCTAGTGCAG | 3240 fluorescence intensity (a.u.)
GGTGAAACAACACGTGGAACTGGAACCTGCCATGTTTTGTCGGAGTCACCTAGTGCAG | 11000 fluorescence intensity (a.u.)
TCGACACCAATGCCCACGCCTAGCCGCTGCTGGTTCGCCACGGAGTCACCTAGTGCAG | 3220 fluorescence intensity (a.u.)
GCAACGGGGTGCGCTGTGGTGGGGACACGTGGCGGCGTGCCGGAGTCACCTAGTGCAG | 16000 fluorescence intensity (a.u.)
CGAGCAACACCAGTCACCAGCATCATCGGTGAGCATGGGTCGGAGTCACCTAGTGCAG | 4210 fluorescence intensity (a.u.)
GTGCATCCAACGGTCATTATTAAATTGATGACGTGGCGCACGGAGTCACCTAGTGCAG | 27900 fluorescence intensity (a.u.)
GGCGCTGGAGGTGGCGCGAGGGCGATGGGACGCGTGGCTCCGGAGTCACCTAGTGCAG | 3470 fluorescence intensity (a.u.)

Reformatted tab-delimited: entries from further up
Sequence	binding signal
CCTCCTCCCCACCAGCCGGCCTGCCACGCCCAGCCCCTCCCGGAGTCACCTAGTGCAG	3840 fluorescence intensity (a.u.)
TACAACACACAGTGACAATGCAGTGCAGAAGATAAAACGGCGGAGTCACCTAGTGCAG	3560 fluorescence intensity (a.u.)
CCTTAGCTTGTCAGAAGACCCCGTGGGACGGCTCGCAGATCGGAGTCACCTAGTGCAG	3390 fluorescence intensity (a.u.)

Going on with the list.

Sequence | binding signal
GCTTGCGCCAAAACCAAACATAGAGCAGCAATAGAGAGGACGGAGTCACCTAGTGCAG | 3610 fluorescence intensity (a.u.)
CGCGCCGAATGACGATCGATCGACGCGCACGCAACCGGCCCGGAGTCACCTAGTGCAG | 3930 fluorescence intensity (a.u.)
GCAACCGCTTCACGTGGCCTGATCCTCCTCCGGAGCTCTCCGGAGTCACCTAGTGCAG | 19500 fluorescence intensity (a.u.)
AAACATAATGAAAATACACGTTGAAACATATGGCTATCACCGGAGTCACCTAGTGCAG | 3350 fluorescence intensity (a.u.)
GTCCTCGGCCAGGGTGACGTGGGCCAGGGTCCACAGCTCCCGGAGTCACCTAGTGCAG | 8740 fluorescence intensity (a.u.)
GTAGAGTGTAGTTTCTATTGTGATGTCTTATTGACATGGCCGGAGTCACCTAGTGCAG | 3790 fluorescence intensity (a.u.)
TCGCCGAGCCTCCGGGTGTGTCCTCCCTACACGTCCGCCTCGGAGTCACCTAGTGCAG | 3660 fluorescence intensity (a.u.)
GGATAAGCCTATCAGACTAATCTGACTCACAGACGTTTAACGGAGTCACCTAGTGCAG | 3580 fluorescence intensity (a.u.)
AATGTTAAGTGGTCATCTGTTCGTCCTAGTATTGTTGTTGCGGAGTCACCTAGTGCAG | 3840 fluorescence intensity (a.u.)
GTTTTGGAGGGCGGTTTTGCTGACGTGGCGCTGACATGGCCGGAGTCACCTAGTGCAG | 32800 fluorescence intensity (a.u.)
CTAACGTACGTTCAGTGTACTAGGTAGATTTTCATCCAAACGGAGTCACCTAGTGCAG | 23500 fluorescence intensity (a.u.)
TTTTAATGAATAGAATGCTAACTCAGCTCCACGTAAACCACGGAGTCACCTAGTGCAG | 9650 fluorescence intensity (a.u.)
CGTGAGGTGAGCTTGAGGTGGTGAGCTGGTGCGAGCGAAACGGAGTCACCTAGTGCAG | 4800 fluorescence intensity (a.u.)
TGTTGGTGGTGAGGTGTGAGGTGAGGTGGGGTGGTGTGGCCGGAGTCACCTAGTGCAG | 3380 fluorescence intensity (a.u.)
TTATATTTTAATTAAAACTATTATAATACACAATACGTCACGGAGTCACCTAGTGCAG | 7060 fluorescence intensity (a.u.)
TGGTCGTAGATCAGGCGTCCTACCTCCCATTCTGTACAGACGGAGTCACCTAGTGCAG | 23800 fluorescence intensity (a.u.)
CATGGTATTGTTTGATGCCAACTGAATTGATACAATGTGACGGAGTCACCTAGTGCAG | 20500 fluorescence intensity (a.u.)
TTTAGTGGCAGTCTTATAATAACGATTCAAAATAGTGGCACGGAGTCACCTAGTGCAG | 3190 fluorescence intensity (a.u.)
CTTGCGGGCGTCGTCGTAGCGTGGTAGGAGTAGGGGAGCCCGGAGTCACCTAGTGCAG | 4020 fluorescence intensity (a.u.)
ATGTTTCACTAGTTTATTTGTAAATATTGCACATGTGTTGCGGAGTCACCTAGTGCAG | 3440 fluorescence intensity (a.u.)
CCGCCGTCCGCCGCCATCCTCGGTGCCGCCGTGGCCTGTGCGGAGTCACCTAGTGCAG | 4430 fluorescence intensity (a.u.)
CAGCCGTTCGATCGCGTTCCTGACGTCCACGGTCAAACTCCGGAGTCACCTAGTGCAG | 4080 fluorescence intensity (a.u.)
CCAAGCAAGCATACAGAGAGCAATAAAAGTATAAAACACACGGAGTCACCTAGTGCAG | 4950 fluorescence intensity (a.u.)
CAAGAGGCGCCGGCATCTCGTGCCCGCGTGGCCTCTTCCTCGGAGTCACCTAGTGCAG | 3440 fluorescence intensity (a.u.)
CTCCCAATGCACAACTTAATAGTGTCTAGTGCATAGGTTCCGGAGTCACCTAGTGCAG | 3710 fluorescence intensity (a.u.)
ACCGATGCCGACGTGCCATCCCTTTGTATCATTTCATTTCCGGAGTCACCTAGTGCAG | 6270 fluorescence intensity (a.u.)
GGCTATGCAGGAGTAGGGTCGTGACGGTTCACATGCTTCTCGGAGTCACCTAGTGCAG | 3320 fluorescence intensity (a.u.)
